Measurements: paper PMC7878923
Like-named read-outs stand apart in the source and are kept apart here. These are yes or no findings as the source states them, for the method shown. In cells and extracts the contact can be indirect. A yes stands for co-enrichment or nearness to the bait. Other partners may have been found. For some assays here: No binding means not detected with the bait.

Chains of the proteins cited; added tags and fusions are not shown. Lines headed by an entry give the natural chain unless they say otherwise; changes in a name come on top.
UniProt O65655: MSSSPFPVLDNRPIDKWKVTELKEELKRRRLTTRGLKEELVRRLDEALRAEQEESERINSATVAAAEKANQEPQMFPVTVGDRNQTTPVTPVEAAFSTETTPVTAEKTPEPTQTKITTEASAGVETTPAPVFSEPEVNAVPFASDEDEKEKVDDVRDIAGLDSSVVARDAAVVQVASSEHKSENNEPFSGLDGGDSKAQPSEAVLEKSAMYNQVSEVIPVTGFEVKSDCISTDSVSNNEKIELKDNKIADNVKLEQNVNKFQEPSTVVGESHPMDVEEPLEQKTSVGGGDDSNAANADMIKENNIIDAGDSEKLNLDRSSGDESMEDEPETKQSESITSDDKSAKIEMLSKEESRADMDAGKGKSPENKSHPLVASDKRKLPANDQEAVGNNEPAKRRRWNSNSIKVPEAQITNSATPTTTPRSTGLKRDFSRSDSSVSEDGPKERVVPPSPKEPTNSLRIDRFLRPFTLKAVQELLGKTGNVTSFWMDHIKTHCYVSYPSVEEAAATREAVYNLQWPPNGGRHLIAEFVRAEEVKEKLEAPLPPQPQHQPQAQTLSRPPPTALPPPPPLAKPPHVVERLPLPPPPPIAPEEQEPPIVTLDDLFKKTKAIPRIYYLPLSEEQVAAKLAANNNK
UniProt Q9SSD2: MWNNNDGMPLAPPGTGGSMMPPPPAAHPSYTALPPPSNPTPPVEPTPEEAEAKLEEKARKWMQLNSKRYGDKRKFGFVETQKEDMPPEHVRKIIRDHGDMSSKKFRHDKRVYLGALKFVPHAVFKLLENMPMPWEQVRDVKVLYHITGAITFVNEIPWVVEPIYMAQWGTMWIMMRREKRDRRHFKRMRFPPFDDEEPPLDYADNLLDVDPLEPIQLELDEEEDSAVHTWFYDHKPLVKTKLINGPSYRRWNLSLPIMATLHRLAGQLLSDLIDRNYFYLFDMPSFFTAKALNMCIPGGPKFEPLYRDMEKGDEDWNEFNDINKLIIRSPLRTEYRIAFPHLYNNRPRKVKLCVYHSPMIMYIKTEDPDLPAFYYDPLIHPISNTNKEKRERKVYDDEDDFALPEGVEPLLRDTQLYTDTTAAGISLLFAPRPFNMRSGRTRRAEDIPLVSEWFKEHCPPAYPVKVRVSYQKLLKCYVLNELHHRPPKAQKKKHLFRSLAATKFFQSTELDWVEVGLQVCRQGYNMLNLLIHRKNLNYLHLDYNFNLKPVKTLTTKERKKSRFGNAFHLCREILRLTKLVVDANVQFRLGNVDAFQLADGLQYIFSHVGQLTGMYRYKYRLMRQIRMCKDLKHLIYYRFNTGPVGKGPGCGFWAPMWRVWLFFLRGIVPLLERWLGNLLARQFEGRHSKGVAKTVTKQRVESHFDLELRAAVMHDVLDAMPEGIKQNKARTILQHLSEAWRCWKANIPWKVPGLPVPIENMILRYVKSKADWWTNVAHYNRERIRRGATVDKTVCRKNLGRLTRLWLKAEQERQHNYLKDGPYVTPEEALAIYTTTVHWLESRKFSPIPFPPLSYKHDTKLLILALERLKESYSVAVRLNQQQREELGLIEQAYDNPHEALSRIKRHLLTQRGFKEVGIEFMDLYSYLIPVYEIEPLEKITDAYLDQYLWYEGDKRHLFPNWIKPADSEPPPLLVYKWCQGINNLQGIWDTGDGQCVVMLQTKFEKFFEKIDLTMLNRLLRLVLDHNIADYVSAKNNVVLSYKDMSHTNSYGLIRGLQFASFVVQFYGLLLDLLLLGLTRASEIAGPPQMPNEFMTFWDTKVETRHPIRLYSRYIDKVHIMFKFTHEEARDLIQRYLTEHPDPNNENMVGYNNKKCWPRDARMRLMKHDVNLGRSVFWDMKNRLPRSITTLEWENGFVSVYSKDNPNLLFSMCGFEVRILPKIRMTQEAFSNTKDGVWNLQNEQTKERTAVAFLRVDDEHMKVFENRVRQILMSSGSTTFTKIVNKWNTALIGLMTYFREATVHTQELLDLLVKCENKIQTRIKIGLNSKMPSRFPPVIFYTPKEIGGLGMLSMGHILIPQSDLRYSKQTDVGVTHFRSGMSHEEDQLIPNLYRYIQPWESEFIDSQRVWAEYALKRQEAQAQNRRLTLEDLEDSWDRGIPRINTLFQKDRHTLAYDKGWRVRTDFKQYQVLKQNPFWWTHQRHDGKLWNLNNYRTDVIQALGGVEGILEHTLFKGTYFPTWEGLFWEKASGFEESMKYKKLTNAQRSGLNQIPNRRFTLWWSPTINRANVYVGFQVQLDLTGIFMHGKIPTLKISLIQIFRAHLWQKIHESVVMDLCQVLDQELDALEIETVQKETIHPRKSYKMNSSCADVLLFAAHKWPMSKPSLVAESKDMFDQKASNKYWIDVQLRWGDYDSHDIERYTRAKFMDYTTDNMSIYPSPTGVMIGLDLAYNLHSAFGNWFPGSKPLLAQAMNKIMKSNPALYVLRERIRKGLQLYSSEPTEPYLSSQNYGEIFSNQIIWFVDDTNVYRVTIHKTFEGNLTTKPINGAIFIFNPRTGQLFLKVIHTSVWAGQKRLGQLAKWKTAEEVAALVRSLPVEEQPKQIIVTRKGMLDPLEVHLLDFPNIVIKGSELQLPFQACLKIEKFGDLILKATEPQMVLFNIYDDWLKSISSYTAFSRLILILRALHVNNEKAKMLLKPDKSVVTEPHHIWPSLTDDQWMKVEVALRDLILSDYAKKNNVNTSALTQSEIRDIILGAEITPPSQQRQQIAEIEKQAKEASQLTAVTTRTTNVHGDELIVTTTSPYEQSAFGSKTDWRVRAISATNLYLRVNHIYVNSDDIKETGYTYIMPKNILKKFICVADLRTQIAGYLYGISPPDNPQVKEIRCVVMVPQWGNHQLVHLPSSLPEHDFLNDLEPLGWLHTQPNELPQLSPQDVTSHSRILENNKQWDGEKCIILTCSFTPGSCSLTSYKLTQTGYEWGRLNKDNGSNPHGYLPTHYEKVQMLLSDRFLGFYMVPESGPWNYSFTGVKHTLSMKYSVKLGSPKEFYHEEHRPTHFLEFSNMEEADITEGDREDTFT

Columns and labels:
[1] = target: AtACINUS-GFP (Arabidopsis thaliana) (UniProt O65655); test: affinity purification with mass spectrometry; label-free IP-MS: extracts of 7-day-old AtACINUS-GFP/acinus-2 seedlings; modified LaG16-LaG2 anti-GFP nanobody on Dynabeads, 3 h at 4 °C; MOPS buffer pH 7.6, 150 mmol/L NaCl, 1% Triton X-100, 20 µmol/L PUGNAc; enrichment against TAP-GFP control (FDR = 0.01, S0 = 2); three biological replicates
[2] = target: AtACINUS (Arabidopsis thaliana (endogenous in seedlings)); test: affinity purification with mass spectrometry; SILIA (15N) quantitative IP-MS: extracts of 2-week-old WT and acinus-2 seedlings; anti-AtACINUS antibody 1 h at 4 °C, then protein A agarose beads; MOPS buffer pH 7.6, 150 mmol/L NaCl, 1% Triton X-100; enrichment in WT against acinus-2; two replicates with switched labels
[3] = target: AtACINUS-GFP (Arabidopsis thaliana) (UniProt O65655); test: affinity purification with mass spectrometry; label-free IP-MS: extracts of 7-day-old AtACINUS-GFP/acinus-2 seedlings; modified LaG16-LaG2 anti-GFP nanobody on Dynabeads, 3 h at 4 °C; MOPS buffer pH 7.6, 150 mmol/L NaCl, 1% Triton X-100, 20 µmol/L PUGNAc; enrichment against TAP-GFP control (FDR = 0.01, S0 = 2); three biological replicates; remark: listed apart in the source

Row | Molecule | binding [1] | binding [2] | binding [3]
1 | PRP8 (from UniProt Q9SSD2 1-2359) | binds | – | –
2 | MAC3A (protein, UniProt Q94BR4 1-523) MNCAISGEVPEEPVVSKKSGLLYEKRLIQTHISDYGKCPVTGEPHTLDDIVPIKTGKIVKPKPLHTASIPGLLGTFQTEWDSLMLSNFALEQQLHTARQELSHALYQHDAACRVIARLKKERDESRQLLAEAERQLPAAPEVATSNAALSNGKRGIDDGEQGPNAKKMRLGISAEVITELTDCNAALSQQRKKRQIPKTLASVDALEKFTQLSSHPLHKTNKPGIFSMDILHSKDVIATGGIDTTAVLFDRPSGQILSTLTGHSKKVTSIKFVGDTDLVLTASSDKTVRIWGCSEDGNYTSRHTLKDHSAEVRAVTVHATNKYFVSASLDSTWCFYDLSSGLCLAQVTDASENDVNYTAAAFHPDGLILGTGTAQSIVKIWDVKSQANVAKFGGHNGEITSISFSENGYFLATAALDGVRLWDLRKLKNFRTFDFPDANSVEFDHSGSYLGIAASDIRVFQAASVKAEWNPIKTLPDLSGTGKATSVKFGLDSKYIAVGSMDRNLRIFGLPDDDNTEDSAQDS | – | binds | binds
3 | MAC3B (protein, UniProt O22785 1-525) MNCAISGEVPVEPVVSTKSGLLFERRLIERHISDYGKCPVTGEPLTIDDIVPIKTGEIIKPKTLHTASIPGLLGTFQNEWDGLMLSNFALEQQLHTARQELSHALYQHDSACRVIARLKKERDEARQLLAEVERHIPAAPEAVTANAALSNGKRAAVDEELGPDAKKLCPGISAEIITELTDCNAALSQKRKKRQIPQTLASIDTLERFTQLSSHPLHKTNKPGICSMDILHSKDVIATGGVDATAVLFDRPSGQILSTLTGHSKKVTSVKFVGDSDLVLTASADKTVRIWRNPGDGNYACGYTLNDHSAEVRAVTVHPTNKYFVSASLDGTWCFYDLSSGSCLAQVSDDSKNVDYTAAAFHPDGLILGTGTSQSVVKIWDVKSQANVAKFDGHTGEVTAISFSENGYFLATAAEDGVRLWDLRKLRNFKSFLSADANSVEFDPSGSYLGIAASDIKVYQTASVKAEWNLIKTLPDLSGTGKATCVKFGSDAQYVAVGSMDRNLRIFGLPGDEKANVDDDSAQDS | – | binds | binds
4 | SKIP (protein, UniProt O80653 1-613) MKSLNDLPAPKSTTTTYYDHSNDAWFKNRVTESETVKSSSIKFKVVPAYLNRQGLRPKNPEDFGDGGAFPEIHLPQYPLLMGKNKSNKPGAKTLPVTVDAQGNVVFDAIVRQNENSRKIVYSQHKDIIPKFLKNEGDLGTVVDEEEELQKEIQETAEETKAAIEKIVNVRLSAAQPSNIARQSGDSQYIKYKPSQQSSAFNSGAKERIIRMVEMPVDPLDPPKFKHKRVPRASGSPPVPVMHSPPRPVTVKDQQDWKIPPCISNWKNPKGYTIPLDKRLAADGRGLQDVQINDNFAKLSEALYVAEQKAREAVSMRSKVQKEMVMKDKERKEQELRALAQKARSERTGAAMSMPVSSDRGRSESVDPRGDYDNYDQDRGREREREEPQETREEREKRIQREKIREERRRERERERRLDAKDAAMGKKSKITRDRDRDISEKVALGMASTGGKGGGEVMYDQRLFNQDKGMDSGFAADDQYNLYDKGLFTAQPTLSTLYKPKKDNDEEMYGNADEQLDKIKNTERFKPDKAFTGASERVGSKRDRPVEFEKEEEQDPFGLEKWVSDLKKGKKPLDKIGSGGTMRASGGGGSSSRDDDHGGSGRTKINFERSDRR | – | binds | binds
5 | SPINDLY (SPY) (enzyme, UniProt Q96301 1-914) MVGLEDDTERERSPVVENGFSNGSRSSSSSAGVLSPSRKVTQGNDTLSYANILRARNKFADALALYEAMLEKDSKNVEAHIGKGICLQTQNKGNLAFDCFSEAIRLDPHNACALTHCGILHKEEGRLVEAAESYQKALMADASYKPAAECLAIVLTDLGTSLKLAGNTQEGIQKYYEALKIDPHYAPAYYNLGVVYSEMMQYDNALSCYEKAALERPMYAEAYCNMGVIYKNRGDLEMAITCYERCLAVSPNFEIAKNNMAIALTDLGTKVKLEGDVTQGVAYYKKALYYNWHYADAMYNLGVAYGEMLKFDMAIVFYELAFHFNPHCAEACNNLGVLYKDRDNLDKAVECYQMALSIKPNFAQSLNNLGVVYTVQGKMDAAASMIEKAILANPTYAEAFNNLGVLYRDAGNITMAIDAYEECLKIDPDSRNAGQNRLLAMNYINEGLDDKLFEAHRDWGWRFTRLHPQYTSWDNLKDPERPITIGYISPDFFTHSVSYFIEAPLTHHDYTKYKVVVYSAVVKADAKTYRFRDKVLKKGGVWKDIYGIDEKKIASMVREDKIDILVELTGHTANNKLGTMACRPAPVQVTWIGYPNTTGLPTVDYRITDSLADPPDTKQKQVEELVRLPDCFLCYTPSPEAGPVCPTPALSNGFVTFGSFNNLAKITPKVLQVWARILCAVPNSRLVVKCKPFCCDSIRQRFLTTLEQLGLESKRVDLLPLILFNHDHMQAYSLMDISLDTFPYAGTTTTCESLYMGVPCVTMAGSVHAHNVGVSLLTKVGLGHLVAKNEDEYVQLSVDLASDVTALSKLRMSLRDLMAGSPVCNGPSFAVGLESAYRNMWKKYCKGEVPSLRRMEMLQKEVHDDPLISKDLGPSRVSVTGEATPSLKANGSAPVPSSLPTQSPQLSKRMDSTS | – | no binding | no binding
6 | SECRET AGENT (SEC) (enzyme, UniProt Q9M8Y0 1-977) MISSKNGAAMISRPVFLSDRVDEVFSRKLDLSVSSSSSSSLLQQFNKTHEGDDDARLALAHQLYKGGDFKQALEHSNMVYQRNPLRTDNLLLIGAIYYQLQEYDMCIARNEEALRIQPQFAECYGNMANAWKEKGDTDRAIRYYLIAIELRPNFADAWSNLASAYMRKGRLSEATQCCQQALSLNPLLVDAHSNLGNLMKAQGLIHEAYSCYLEAVRIQPTFAIAWSNLAGLFMESGDLNRALQYYKEAVKLKPAFPDAYLNLGNVYKALGRPTEAIMCYQHALQMRPNSAMAFGNIASIYYEQGQLDLAIRHYKQALSRDPRFLEAYNNLGNALKDIGRVDEAVRCYNQCLALQPNHPQAMANLGNIYMEWNMMGPASSLFKATLAVTTGLSAPFNNLAIIYKQQGNYSDAISCYNEVLRIDPLAADALVNRGNTYKEIGRVTEAIQDYMHAINFRPTMAEAHANLASAYKDSGHVEAAITSYKQALLLRPDFPEATCNLLHTLQCVCCWEDRSKMFAEVESIIRRQINMSVLPSVQPFHAIAYPIDPILALEISRKYAAHCSIIASRFGLPPFTHPAGLPVKREGGFKRLRIGYVSSDFGNHPLSHLMGSVFGMHNRENVEVFCYALSANDNTEWRQRIQSEAEHFLDVSAMSSDAIAKIINQDKIQILINLNGYTKGARNEIFAMQPAPIQVSYMGFPGTTGATYIDYLVTDEFVSPLQYAHIYSEKLVHLPHCYFVNDYKQKNQDVLDPNSKPKRSDYGLPEDKFIFACFNQLYKMDPEIVNTWCNILKRVPNSALWLLRFPAAGEMRFRTYAAAQGVQPDQIIFTDVAMKSEHIRRSVLADVILDTPLCNGHTTGTDVLWAGVPMITLPLEKMATRVAGSLCLATGLGHGMIVNSLEEYEEKAVSLALNKPKLQALTKELRASRLTCPLFDTMRWVKNLERSYFKMWNLHCSGQQPQHFKVLENDLEFPHDR | – | no binding | no binding
